In paper PMC7819943, “Rice protein-binding microarrays: a tool to detect cis-acting elements near promoter regions in rice”:
The other results are listed elsewhere or left out.

By UniProt entry, the sequences of proteins in these tests, tags left out.
UniProt Q0JBA9, entry or part of it: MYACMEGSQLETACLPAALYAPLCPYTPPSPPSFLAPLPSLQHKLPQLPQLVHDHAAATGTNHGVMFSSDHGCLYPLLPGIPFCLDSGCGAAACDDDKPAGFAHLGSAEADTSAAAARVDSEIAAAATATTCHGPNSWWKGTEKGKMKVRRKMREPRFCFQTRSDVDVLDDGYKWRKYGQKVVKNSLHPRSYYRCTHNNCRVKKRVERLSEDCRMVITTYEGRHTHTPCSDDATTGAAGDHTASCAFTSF

target: OsWRKY34 (Oryza sativa, UniProt Q0JBA9 1-250); test: protein-binding microarray (RPBM); PBS, 2% BSA, 51.3 ng/ul salmon testes DNA, 50 uM zinc acetate, 200 nM TF, 25 C, 1 h; high values mean tight binding; conditions: protein: recombinant; tags: N-terminal polyhistidine and DsRed monomer fusion (pET32a); label: CyDye5-dUTP incorporated in the synthesized complementary strand; 3' TTTTT single-stranded linker to array surface; dsDNA, one strand shown
Outline: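 The binding signal for each feature is its fluorescence intensity in arbitrary units. An Axon 4000B scanner was used to read a custom Agilent array that had been made double-stranded with Cy5-dUTP primer extension, blocked with 2% BSA, incubated at 25 °C for 1 h with 200 nM protein in PBS, 2% BSA, salmon testes DNA and 50 µM zinc acetate, and washed. The protein was an N-terminal polyhistidine–DsRed transcription factor fusion from E. coli BL21-CodonPlus, purified on Ni–NTA.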

**Q.** “AATCCCCGCACGCGTCTTTACTTCGCCTTCGTCTTTCCTCCGGAGTCACCTAGTGCAG” was tested. Which binding signal did it give?
**A.** 9340 fluorescence intensity (a.u.)

**Q.** “TCGACTAAATTACCCGCGCTATTACTGTACCGTGCGTCGACGGAGTCACCTAGTGCAG” was tested. Which binding signal did it give?
**A.** 9640 fluorescence intensity (a.u.)

**Q.** With “GACACCGCCCCGTCGAGCGCCCGGTCCTTCACCCACTTCACGGAGTCACCTAGTGCAG” as the sequence, how does the binding signal read?
**A.** 9950 fluorescence intensity (a.u.)

**Q.** Which binding signal does the source give for “GACTCGACTCTTATCTGTGTGGGCCGTCGTCGTCTTCAACCGGAGTCACCTAGTGCAG” here?
**A.** 9790 fluorescence intensity (a.u.)

**Q.** With “TGCACTAGTATGTATGACGTTGACTGTTTTTTTAAGGACGCGGAGTCACCTAGTGCAG” as the sequence, how does the binding signal read?
**A.** 10200 fluorescence intensity (a.u.)

**Q.** How did the binding signal turn out when “TATAACTTTATCTAGTTTGTTTAGACCTCATTGCTATTTCCGGAGTCACCTAGTGCAG” was run?
**A.** 9950 fluorescence intensity (a.u.)

**Q.** For “TGGTAGCACGTATTTTTCTCTCCCTGTTTTTTTGCTGATTCGGAGTCACCTAGTGCAG”, which binding signal is on record?
**A.** 9630 fluorescence intensity (a.u.)

**Q.** With “GATGTAACTTATTTTATTTAATTTTCTGCTTAAATGTTTTCGGAGTCACCTAGTGCAG” as the sequence, how does the binding signal read?
**A.** 9410 fluorescence intensity (a.u.)

**Q.** Which binding signal does the source give for “CGCCGCCACCGTCCTCTCCGCTCCGCTCCGGCCCAACGAGCGGAGTCACCTAGTGCAG” here?
**A.** 8390 fluorescence intensity (a.u.)

**Q.** For “AAGTCTTCTCAAATTTGCAAACTCTACTGTTTTGTTTGATCGGAGTCACCTAGTGCAG”, which binding signal is on record?
**A.** 10200 fluorescence intensity (a.u.)

**Q.** With “CCCCAACTACCCCAAATTTCCAATTTTCCATCACATCACACGGAGTCACCTAGTGCAG” as the sequence, how does the binding signal read?
**A.** 11000 fluorescence intensity (a.u.)

**Q.** Which binding signal does the source give for “TTCATTCGTCCCATGATATTTTTTTTCTAGCATTTAAAAGCGGAGTCACCTAGTGCAG” here?
**A.** 8220 fluorescence intensity (a.u.)

**Q.** “ACCCTTCACTACTCATTTCTACCTATTTTCTTAATAACCGCGGAGTCACCTAGTGCAG” was tested. Which binding signal did it give?
**A.** 8900 fluorescence intensity (a.u.)

**Q.** With “CGACTCGACGTCGTCGTCATTCTTCATGGCTGGGTGGGTTCGGAGTCACCTAGTGCAG” as the sequence, how does the binding signal read?
**A.** 9940 fluorescence intensity (a.u.)

**Q.** How did the binding signal turn out when “TCTCTCATTTGGTACATAAACTTTTCTTGTTGTCGCTCTTCGGAGTCACCTAGTGCAG” was run?
**A.** 8930 fluorescence intensity (a.u.)

**Q.** With “ACCAGTTTTTCTGCTAGGGATCTTCGTCGGCGCCCTTCTTCGGAGTCACCTAGTGCAG” as the sequence, how does the binding signal read?
**A.** 9820 fluorescence intensity (a.u.)

**Q.** Which binding signal does the source give for “AATACTCATCATTAGGAGCACATGTCTAAGTTTTTTTTAACGGAGTCACCTAGTGCAG” here?
**A.** 8350 fluorescence intensity (a.u.)

**Q.** “TCATGATTCTGGATATATCTTTTCCCAATTTATCATGCCACGGAGTCACCTAGTGCAG” was tested. Which binding signal did it give?
**A.** 8370 fluorescence intensity (a.u.)

**Q.** For “TGGTTGTATAATTCTACCCGCTGGCGGTGTCGCTTGTGAACGGAGTCACCTAGTGCAG”, which binding signal is on record?
**A.** 8700 fluorescence intensity (a.u.)

**Q.** How did the binding signal turn out when “CTGCTTCCGCCGCATCCACATCCTTCGCCGCCGCCGCCGCCGGAGTCACCTAGTGCAG” was run?
**A.** 10600 fluorescence intensity (a.u.)

**Q.** How did the binding signal turn out when “GGATTTCTATATGGACTCTAGTCTCCTCTTCTAATATTCCCGGAGTCACCTAGTGCAG” was run?
**A.** 9530 fluorescence intensity (a.u.)

**Q.** With “TCTCAGTTGCAAAAACAGATACAGCCTATATACCTTTTTTCGGAGTCACCTAGTGCAG” as the sequence, how does the binding signal read?
**A.** 8310 fluorescence intensity (a.u.)

**Q.** With “AGGTGTACATGATTGTTTGCTTCCTTGCTGCAGCTCGGCGCGGAGTCACCTAGTGCAG” as the sequence, how does the binding signal read?
**A.** 9030 fluorescence intensity (a.u.)

**Q.** Which binding signal does the source give for “ACCCACTCTTTTTTTCAAGTTCCAGCATCCGTTTGTGAATCGGAGTCACCTAGTGCAG” here?
**A.** 8850 fluorescence intensity (a.u.)

**Q.** How did the binding signal turn out when “TGTTTATTTTTTTCGTTAAATTTGATTGTTTCCATTTGCACGGAGTCACCTAGTGCAG” was run?
**A.** 9770 fluorescence intensity (a.u.)

**Q.** Which binding signal does the source give for “ATTTATCTTCTCTGTTTAGGGCTCCTAAAAATTCGAACTACGGAGTCACCTAGTGCAG” here?
**A.** 9150 fluorescence intensity (a.u.)

**Q.** For “GTTGTATTTATTGGTACCCTTGAAATTTTGTGGTATTCTTCGGAGTCACCTAGTGCAG”, which binding signal is on record?
**A.** 8390 fluorescence intensity (a.u.)

**Q.** For “CCGAGCAACCGGTCTTTTCGCCACCTCGGTACATGTTCTACGGAGTCACCTAGTGCAG”, which binding signal is on record?
**A.** 13400 fluorescence intensity (a.u.)

**Q.** For “TTCTCCTCCTATGCGGACACGCCGCCACCCACGAGGCCACCGGAGTCACCTAGTGCAG”, which binding signal is on record?
**A.** 8700 fluorescence intensity (a.u.)

**Q.** For “CGCGTTCATCTTCTGCTTGTTATAATCCTCCATTCTTTTTCGGAGTCACCTAGTGCAG”, which binding signal is on record?
**A.** 12400 fluorescence intensity (a.u.)

**Q.** “CCACGCGTCCGCGTCCCGCACGCCAATCACACGCACGGAGCGGAGTCACCTAGTGCAG” was tested. Which binding signal did it give?
**A.** 8170 fluorescence intensity (a.u.)

**Q.** With “CCAGTTCATCCACACGTGTGTAGTCCGTTTGTTGGTTGGTCGGAGTCACCTAGTGCAG” as the sequence, how does the binding signal read?
**A.** 10500 fluorescence intensity (a.u.)

**Q.** For “AATTTTGTTACTTAATCTATAGCTTTGTGACCATATATTTCGGAGTCACCTAGTGCAG”, which binding signal is on record?
**A.** 8630 fluorescence intensity (a.u.)

**Q.** “CAGGGGCTATTTCTGCAATTTTTTTGGTCGATAGATTATTCGGAGTCACCTAGTGCAG” was tested. Which binding signal did it give?
**A.** 9070 fluorescence intensity (a.u.)

**Q.** For “ACTCTATTTAGATATTTTCCCACGCATCCGTCTCCTCCTCCGGAGTCACCTAGTGCAG”, which binding signal is on record?
**A.** 9420 fluorescence intensity (a.u.)

**Q.** “CCGTTTTGTATAGTTAAGGGCCCCGCATATCTGGTTTTGTCGGAGTCACCTAGTGCAG” was tested. Which binding signal did it give?
**A.** 8210 fluorescence intensity (a.u.)

**Q.** Which binding signal does the source give for “TCATCCGGACTAAACGCGTCCATCCGCGCGCTTCTCTTCCCGGAGTCACCTAGTGCAG” here?
**A.** 8590 fluorescence intensity (a.u.)

**Q.** For “CTCCTCTAACGTACCATAGAGGGACATACGTTTCTGATGTCGGAGTCACCTAGTGCAG”, which binding signal is on record?
**A.** 8720 fluorescence intensity (a.u.)

**Q.** Which binding signal does the source give for “CAGAAATTCCATATGCCATATGTTAGCTTATGTCCAATTGCGGAGTCACCTAGTGCAG” here?
**A.** 8550 fluorescence intensity (a.u.)

**Q.** Which binding signal does the source give for “TTCAAACTGCTAAACGGTATGTTATTTTTTAAAAGTTTCTCGGAGTCACCTAGTGCAG” here?
**A.** 9550 fluorescence intensity (a.u.)

**Q.** Which binding signal does the source give for “GCATCCCTTTCCTCGACACTCTGCACTCCAGGCTTCAATTCGGAGTCACCTAGTGCAG” here?
**A.** 11100 fluorescence intensity (a.u.)

**Q.** For “ATTAATCTACGTTCGATTTAATATGTGTCCGTATACTTTACGGAGTCACCTAGTGCAG”, which binding signal is on record?
**A.** 8350 fluorescence intensity (a.u.)

**Q.** For “GATTGGGTTGGGTAGAGCGGCCACACTATTGCGGAATTTCCGGAGTCACCTAGTGCAG”, which binding signal is on record?
**A.** 9200 fluorescence intensity (a.u.)

**Q.** For “ATCCATTCTCCGTAGTATTCTCGTATTAGGTTTGTTTTTTCGGAGTCACCTAGTGCAG”, which binding signal is on record?
**A.** 13700 fluorescence intensity (a.u.)

**Q.** How did the binding signal turn out when “CGGCTCCATTTTGTCGTTGCGCGCGACGCGCCTCACTTCCCGGAGTCACCTAGTGCAG” was run?
**A.** 9210 fluorescence intensity (a.u.)

**Q.** “AACGATGACTGCAGGATATTATGTTCCTATTGCAAAGTCTCGGAGTCACCTAGTGCAG” was tested. Which binding signal did it give?
**A.** 9940 fluorescence intensity (a.u.)

**Q.** “AAGGCCCGCCCAATTCCTCTTGCATGTATGTGTTTGTAGGCGGAGTCACCTAGTGCAG” was tested. Which binding signal did it give?
**A.** 8420 fluorescence intensity (a.u.)

**Q.** “CACTTGCTAATCACTCTCACTCTCATCTTAGCTTGTCCATCGGAGTCACCTAGTGCAG” was tested. Which binding signal did it give?
**A.** 8820 fluorescence intensity (a.u.)

**Q.** For “TGGACAAGTTGTGTGTGAGCTATTCTGCCTTTTATACTTCCGGAGTCACCTAGTGCAG”, which binding signal is on record?
**A.** 11900 fluorescence intensity (a.u.)

**Q.** With “TCTCTCGACCGCTCGTCTCTCTCGACTGCTTCGTCGCTCCCGGAGTCACCTAGTGCAG” as the sequence, how does the binding signal read?
**A.** 9060 fluorescence intensity (a.u.)

**Q.** Which binding signal does the source give for “GATGTGAACCTGCAGTGCTATCCTTATCCTCTGTCCCAAACGGAGTCACCTAGTGCAG” here?
**A.** 9210 fluorescence intensity (a.u.)

**Q.** Which binding signal does the source give for “GGTCGTTGTCATTGATTCTTATGCTTGTATTTGACTATTCCGGAGTCACCTAGTGCAG” here?
**A.** 12600 fluorescence intensity (a.u.)

**Q.** Which binding signal does the source give for “CTCTCTCCCGCCAACGCCCAAGTCCCACCTATTAATCTCCCGGAGTCACCTAGTGCAG” here?
**A.** 8750 fluorescence intensity (a.u.)

**Q.** For “GGATGCCACTTGAACGATAATTTTGACGATATTTTTGTAACGGAGTCACCTAGTGCAG”, which binding signal is on record?
**A.** 8050 fluorescence intensity (a.u.)
